This passage reports binding results from publication PMC3245618.

The chains behind the UniProt entries cited, without tags or fusion partners.
UniProt P83916: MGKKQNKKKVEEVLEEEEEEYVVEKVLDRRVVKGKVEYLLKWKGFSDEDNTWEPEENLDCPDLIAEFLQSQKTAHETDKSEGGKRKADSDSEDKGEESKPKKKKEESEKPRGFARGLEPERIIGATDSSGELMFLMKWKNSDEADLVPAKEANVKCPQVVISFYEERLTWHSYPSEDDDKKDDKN

The assay deals with GST-HP1β (heterochromatin protein 1β) (UniProt P83916). The experiment in a line: pull-down; recombinant GST-HP1β as bait; cell extracts from U2OS cells expressing GFP-KAP1 versions; only the target purified.

Positions count from the first letter of the chain named. Numbers in names are those of the source. Results are given in words; binding and its absence hold for the method and conditions named. Binding seen in cells or lysates may run through a third protein. Some binding calls cover weakened binding; strength is not graded here. Tags and fused reporters may be left off the sequences shown.

B1: GFP-KAP1 S473A, stably expressed in U2OS cells (protein, UniProt Q13263 1-835)
chain: MAASAAAASAAAASAASGSPGPGEGSAGGEKRSTAPSAAASASASAAASSPAGGGAEALELLEHCGVCRERLRPEREPRLLPCLHSACSACLGPAAPAAANSSGDGGAAGDGTVVDCPVCKQQCFSKDIVENYFMRDSGSKAATDAQDANQCCTSCEDNAPATSYCVECSEPLCETCVEAHQRVKYTKDHTVRSTGPAKSRDGERTVYCNVHKHEPLVLFCESCDTLTCRDCQLNAHKDHQYQFLEDAVRNQRKLLASLVKRLGDKHATLQKSTKEVRSSIRQVSDVQKRVQVDVKMAILQIMKELNKRGRVLVNDAQKVTEGQQERLERQHWTMTKIQKHQEHILRFASWALESDNNTALLLSKKLIYFQLHRALKMIVDPVEPHGEMKFQWDLNAWTKSAEAFGKIVAERPGTNSTGPAPMAPPRAPGPLSKQGSGSSQPMEVQEGYGFGSGDDPYSSAEPHVSGVKRSRAGEGEVSGLMRKVPRVSLERLDLDLTADSQPPVFKVFPGSTTEDYNLIVIERGAAAAATGQPGTAPAGTPGAPPLAGMAIVKEEETEAAIGAPPTATEGPETKPVLMALAEGPGAEGPRLASPSGSTSSGLEVVAPEGTSAPGGGPGTLDDSATICRVCQKPGDLVMCNQCEFCFHLDCHLPALQDVPGEEWSCSLCHVLPDLKEEDGSLSLDGADSTGVVAKLSPANQRKCERVLLALFCHEPCRPLHQLATDSTFSLDQPGGTLDLTLIRARLQEKLSPPYSSPQEFAQDVGRMFKQFNKLTEDKADVQSIIGLQRFFETRMNEAFGDTKFSAVLVEPPPMSLPGAGLSSQELSGGPGDGP
As to B1, the binding result is reported as “binds”.

B2: GFP-KAP1 S473D, stably expressed in U2OS cells (protein, UniProt Q13263 1-835)
chain: B1 chain with A473D
B2: the binding entry is “binds”.
